These are yes or no findings as the source states them, for the method shown. Binding seen in cells or lysates may run through a third protein. Some entries that bind do so weakly or less than the wild type. For some of these results: Where a sequence is shown, tags or fusion partners need not be part of it.
What was measured:
Assay in all cases: co-IP; lysates of 293T cells transfected with FLAG-tagged MxA constructs and infected 24 h later with THOV (MOI 10, 24 h); lysis in 50 mM Tris pH 8.0, 150 mM NaCl, 1 mM EDTA, 0.5% Nonidet P-40; anti-FLAG-M2 affinity gel, 2 h at 4 °C; western blot for MxA and THOV NP
[1] = molecular target: MxA super-restrictor variant QFAYS, FLAG-tagged (human) (UniProt P20591)
[2] = molecular target: MxA super-restrictor variant TFAMC, FLAG-tagged (human) (UniProt P20591)
[3] = molecular target: MxA super-restrictor variant VFRSV, FLAG-tagged (human) (UniProt P20591)
[4] = molecular target: T1, wild-type human MxA, FLAG-tagged (human) (UniProt P20591)
T1 sequence: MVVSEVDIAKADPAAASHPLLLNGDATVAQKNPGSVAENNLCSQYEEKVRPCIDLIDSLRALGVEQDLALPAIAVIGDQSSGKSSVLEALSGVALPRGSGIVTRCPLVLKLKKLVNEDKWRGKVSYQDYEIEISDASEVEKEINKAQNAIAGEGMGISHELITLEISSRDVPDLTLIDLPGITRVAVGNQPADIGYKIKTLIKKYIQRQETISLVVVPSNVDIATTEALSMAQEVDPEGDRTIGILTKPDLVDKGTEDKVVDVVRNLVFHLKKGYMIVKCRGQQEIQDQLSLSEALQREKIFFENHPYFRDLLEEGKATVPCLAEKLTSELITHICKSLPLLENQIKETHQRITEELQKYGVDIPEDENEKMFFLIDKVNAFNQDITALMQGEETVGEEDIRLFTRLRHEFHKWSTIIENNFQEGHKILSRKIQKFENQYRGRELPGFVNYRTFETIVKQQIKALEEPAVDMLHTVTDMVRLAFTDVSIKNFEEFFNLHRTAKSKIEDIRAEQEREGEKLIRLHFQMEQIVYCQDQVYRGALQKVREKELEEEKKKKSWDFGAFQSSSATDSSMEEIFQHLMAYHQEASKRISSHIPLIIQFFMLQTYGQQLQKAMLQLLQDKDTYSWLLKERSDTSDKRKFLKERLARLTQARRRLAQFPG

Amino acid sequences for entries named in this document (tags omitted).
UniProt P89216: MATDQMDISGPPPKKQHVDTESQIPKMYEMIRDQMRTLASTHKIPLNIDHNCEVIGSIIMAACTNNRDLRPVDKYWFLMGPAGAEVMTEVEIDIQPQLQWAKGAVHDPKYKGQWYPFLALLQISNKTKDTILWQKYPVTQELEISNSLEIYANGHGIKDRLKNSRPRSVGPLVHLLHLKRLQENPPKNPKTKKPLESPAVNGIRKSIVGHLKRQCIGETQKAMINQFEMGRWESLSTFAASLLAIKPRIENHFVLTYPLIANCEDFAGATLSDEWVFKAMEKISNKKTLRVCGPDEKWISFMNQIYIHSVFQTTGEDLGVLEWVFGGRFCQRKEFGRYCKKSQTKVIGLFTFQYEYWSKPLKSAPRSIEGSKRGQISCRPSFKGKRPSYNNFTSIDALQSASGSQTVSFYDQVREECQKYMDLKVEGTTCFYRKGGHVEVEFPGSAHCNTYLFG

Measured: binding

Thogotovirus nucleoprotein (from UniProt P89216 1-454)
binds: [1] | [2] | [3] | [4]
